Values of other authors, collected in patent US10973868B2, “Composition for topical use based on a carnosine-magnesium complex” (Outplay Inc., priority 2016, dated 2021).
Some of these results come from one statement about several compounds together. For at least one compound, name, drawing or mass did not settle the structure.

Conditions: with 1,2-pentylene glycol (PG); cited from earlier work

CC(=O)NCCC(=O)N[C@@H](Cc1cnc[nH]1)C(=O)O [N-acetyl-L-carnosine]
dipeptide concentrations in the SC and viable skin layers compared to formulation without enhancer: ≥ 6 fold

NCCC(=O)N[C@@H](Cc1cnc[nH]1)C(=O)O [carnosine, β-alanyl-L-histidine]
dipeptide concentrations in the SC and viable skin layers compared to formulation without enhancer: ≥ 6 fold
